Experimental findings from publication PMC8518066 (Chemistry (Weinheim an Der Bergstrasse, Germany), 2021) are described below.

A short description of the data set: general procedure: solution-phase peptide synthesis; HBTU/DIPEA; HATU/DIPEA.

With “(2S)-2-{[(2S)-1-[(2R,4S,5S)-5-[(2S)-2-Azaniumyl-3-methylbutanamido]-2-benzyl-4-hydroxy-6-methylheptanoyl]pyrrolidin-2-yl]formamido}-3-(1H-indol-3-yl)propanoate”, the step yield (late stage modification step, 2 steps, from 9) was determined as 46%. Consider “((2R,4R,5S)-5-((S)-2-Ammonio-3-methylbutanamido)-2-(4-fluorobenzyl)-4-hydroxy-6-methylheptanoyl)-L-prolyl-L-tryptophanate”, for which, under “late stage modification step”, the step yield is listed as 29%. In the case of “((2R,4R,5S)-5-((S)-2-Ammonio-3-methylbutanamido)-2-benzyl-4-hydroxy-6-methylheptanoyl)-L-prolyl-L-tryptophanate (HER)”, the step yield (late stage modification step) turned out to be 44%. The substance “((2R,4R,5S)-5-((S)-2-Ammonio-3-methylbutanamido)-4-hydroxy-2-(4-hydroxybenzyl)-6-methylheptanoyl)-L-prolyl-L-tryptophanate” showed a step yield (late stage modification step, 2 steps from 30c) of 27%. Regarding “((2R,4R,5S)-5-((S)-2-Ammonio-3-methylbutanamido)-4-hydroxy-6-methyl-2-(4-methylbenzyl)heptanoyl)-L-prolyl-L-tryptophanate”, the step yield (late stage modification step, 2 steps from 30b) was 36%.

As to “((S)-1-((2R,4R,5S)-5-((S)-2-Ammonio-3,3-dimethylbutanamido)-2-benzyl-4-hydroxy-6-methylheptanoyl)piperidine-2-carbonyl)-L-tryptophanate”, the step yield (late stage modification step, 2 steps from 36b) came to 25%. “((S)-1-((2R,4R,5S)-5-((S)-2-Ammonio-3-methylbutanamido)-2-benzyl-4-hydroxy-6-methylheptanoyl)piperidine-2-carbonyl)-L-tryptophanate”: the step yield (late stage modification step, 2 steps from 37a) was determined as 31%. As to “Methyl (2S)-2-{[(2S)-1-[(2R,4S,5S)-2-benzyl-5-[(2S)-2-{[(tert-butoxy)carbonyl]amino}-3-methylbutanamido]-4-hydroxy-6-methylheptanoyl]pyrrolidin-2-yl]formamido}-3-(1H-indol-3-yl)propanoate”, the step yield (coupling step, 2 steps from 8) is on record as 52%, 2 steps, from 8%.

With “Methyl (2S)-2-{[(2S)-1-[(2R,4S,5S)-2-benzyl-5-{[(tert-butoxy)carbonyl]amino}-4-[(tert-butyldimethylsilyl)oxy]-6-methylheptanoyl]pyrrolidin-2-yl]formamido}-3-(1H-indol-3-yl)propanoate”, the step yield (coupling step, from 7) was 74% from 7%.

Consider “Methyl ((2R,4R,5S)-5-((S)-2-((tert-butoxycarbonyl)amino)-3-methylbutanamido)-2-(4-fluorobenzyl)-4-hydroxy-6-methylheptanoyl)-L-prolyl-L-tryptophanate”, for which the step yield (coupling step, 2 steps from 28a) worked out at 48%. For the setting “coupling step, 2 steps from 28b”, “Methyl ((2R,4R,5S)-5-((S)-2-((tert-butoxycarbonyl)amino)-3-methylbutanamido)-4-hydroxy-6-methyl-2-(4-methylbenzyl)heptanoyl)-L-prolyl-L-tryptophanate” returned a step yield of 38%. The substance “Methyl ((2R,4R,5S)-5-((S)-2-amino-3-methylbutanamido)-4-hydroxy-2-(4-hydroxybenzyl)-6-methylheptanoyl)-L-prolyl-L-tryptophanate” came in with a step yield (late stage modification step) of 31%.
